No constants are given. Whether binding was seen depends on the method and setting. Binding seen in cells or lysates may run through a third protein. Binding calls can cover weak binding; strength is not graded here.

The experiment addresses CTD of Mfa5 (Halo chimera) (Porphyromonas gingivalis) (UniProt B2RHG5). Kind of experiment: pull-down; porN mutant cells expressing a Halo-CTD chimera treated with DTBP; partially purified sample bound to HaloLink Resin, washed three times, eluted with SDS sample buffer containing dithiothreitol, immunoblot with anti-PorV. (In general: Immunoblotting shows a protein as a band on a membrane.)

For “PorV (PGN_0023) (from UniProt A0A134DMH4)”, the binding result is “binds”.
